Data published in publication PMC12489013.
Positions count from the first letter of the chain named. These are yes or no findings as the source states them, for the method shown. In cells and extracts the contact can be indirect. Here binding means that the protein was enriched with, or labelled near, the bait; the list need not be complete. Where a sequence is shown, tags or fusion partners need not be part of it.

Chains of the proteins cited; added tags and fusions are not shown. Residues count along the entry.
UniProt P19404, residues 33-249: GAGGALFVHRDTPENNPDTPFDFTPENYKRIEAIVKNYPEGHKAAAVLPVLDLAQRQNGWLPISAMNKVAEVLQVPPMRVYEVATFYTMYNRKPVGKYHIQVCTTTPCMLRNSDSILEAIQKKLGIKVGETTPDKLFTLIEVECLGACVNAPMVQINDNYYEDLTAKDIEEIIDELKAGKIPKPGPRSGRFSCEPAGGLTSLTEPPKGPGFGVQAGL
UniProt P56181, residues 35-108: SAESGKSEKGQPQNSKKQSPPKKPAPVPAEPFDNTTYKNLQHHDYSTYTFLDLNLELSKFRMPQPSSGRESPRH

Key:
Assay in all cases: affinity purification with mass spectrometry; crude mitochondria of rescue cell lines cross-linked with 0.5 mM DSSO (1 h, RT), quenched with Tris, solubilised with digitonin (6 g/g); FLAG immunoprecipitation of RTN4IP1-FLAG on magnetic anti-FLAG beads, on-bead tryptic digest, LC-MS; compared with WT(+GFP) mitochondria
[1] = molecular target: T1, RTN4IP1-FLAG R103H (human) (UniProt Q8WWV3)
T1 sequence: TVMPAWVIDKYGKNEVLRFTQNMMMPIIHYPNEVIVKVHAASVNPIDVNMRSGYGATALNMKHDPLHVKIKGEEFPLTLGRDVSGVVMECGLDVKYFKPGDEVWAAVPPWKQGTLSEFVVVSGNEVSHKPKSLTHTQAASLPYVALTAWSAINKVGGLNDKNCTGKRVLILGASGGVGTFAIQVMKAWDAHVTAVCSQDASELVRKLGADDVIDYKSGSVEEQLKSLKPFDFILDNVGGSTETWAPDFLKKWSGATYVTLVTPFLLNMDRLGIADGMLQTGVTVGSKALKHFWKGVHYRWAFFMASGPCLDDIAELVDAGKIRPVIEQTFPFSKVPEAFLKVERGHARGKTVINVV

[2] = molecular target: T2, RTN4IP1-FLAG WT (Reticulon-4-interacting protein 1) (human) (UniProt Q8WWV3)
T2 sequence: T1 sequence with H63R

[3] = molecular target: T3, RTN4IP1-FLAG G215A (human) (UniProt Q8WWV3)
T3 sequence: T1 sequence with H63R, G175A

Measured: binding

NDUFV2 (CI N-module subunit) (from UniProt P19404 33-249)
binds: all assays above

NDUFV3 (CI N-module subunit) (from UniProt P56181 35-108)
binds: all assays above
